# Test results taken from PubChem BioAssay AID493014 (National Center for Advancing Translational Sciences (NCATS), 2011).
# The list shows a part of the results. Further columns of the screen follow, without active or inactive calls. Compounds called inactive in the main read-out are mostly missing here. Potencies come from curve fits of mixed quality, noted in brackets.
# Assay: qHTS Assay to Find Inhibitors of Chronic Active B-Cell Receptor Signaling
# Conditions: ABC-DLBCL IkBa-CBG/CBR reporter, luminescence ratio (green luciferase fused to IkBa over red control in TMD8 lymphoma cells), 4 h
# How it was run: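 Cell line TMD8 (human ABC DLBCL), stably expressing tet-inducible CBG68-IkBa fusion and CBR; IMDM/0.5% FBS; cpd up to 46 uM; dox induction, 4 h, 37C/5% CO2; dual luminescence; green/red ratio; MG132 control.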
# [1] = measured here: CBR red luminescence, cell number
SMILES,AC50 [1],AC50 (measured here: IkBa-CBG green luminescence)
CCn1nc(C(=O)Nc2ccc(C)c(C)c2)c(Cl)c1Cl,"5.01 µM [rising, full curve]",–
CCN(CC)CCCN=Cc1c(O)n(Cc2ccccc2)c(=O)c2ccccc12,"2.59 µM [rising, single point]",–
O=C(c1cc2sccc2n1Cc1ccc(F)cc1)N1CCN(c2nc3ccccc3s2)CC1,"0.0116 µM [rising, full curve, poor fit]",–
Cn1nnnc1SCC(=O)Nc1ccc(Oc2ccccc2)cc1,"11.6 µM [falling, partial curve, poor fit]",–
CCN1CCN(c2c(Cl)cccc2NC(=O)c2ccc(Br)o2)CC1,"0.411 µM [falling, full curve, poor fit]",–
COc1ccc(C(=O)Nc2cnn(Cc3c(F)cccc3Cl)c2)cc1OC,"0.631 µM [falling, single point]",–
COc1cccc(N=Nc2c(=O)[nH]n3c(=O)c4c([nH]c23)CCC4)c1,"20.6 µM [falling, partial curve]",–
COC(=O)C1=C(C(=O)c2ccccc2)C(c2ccccc2)n2nnnc2N1 (stereo unspecified),"0.708 µM [rising, full curve, poor fit]",–
COc1ccc(S(=O)(=O)Nc2ccccn2)cc1C,"3.98 µM [rising, full curve, poor fit]",–
Cn1c(=O)cc(SCC(=O)N2CCCC2)c2ccc(Cl)cc21,"3.55 µM [rising, single point]",–
O=C(NNC(=O)c1cccc(-n2cccc2)c1)c1ccccc1,"18.4 µM [rising, partial curve, poor fit]",–
CCC(C(=O)O/N=C(\N)c1ccccc1)c1ccccc1 (stereo unspecified),"20.6 µM [rising, single point]",–
O=C(NCCn1ccc2ccccc21)c1ccc2c(c1)OCO2,"10.3 µM [falling, partial curve, poor fit]",–
CS(=O)(=O)c1ccc(C(=O)OCc2nnc(-c3ccc(Cl)cc3)o2)cc1[N+](=O)[O-],"35.5 µM [falling, single point]",–
Cc1nc2ccc(Br)cc2c(-c2ccccc2)c1C(=O)O,"35.5 µM [rising, single point]",–
O=C(CNC(=O)c1ccco1)NCC(=O)OCc1cccc(C(=O)Oc2ccccc2)c1,"18.4 µM [rising, partial curve, poor fit]",–
CC1CN(C(=O)c2ccccc2)OC(c2ccc3c(c2)OCO3)O1 (stereo unspecified),"35.5 µM [falling, single point]",–
O=S(=O)(NCc1csc(-c2ccccc2)n1)c1ccc(Cl)s1,"29.1 µM [rising, single point]",–
CC1CCN(C(=O)CN(c2ccc3c(c2)OCCO3)S(=O)(=O)c2ccccc2)CC1,"35.5 µM [falling, single point]",–
Cn1c(N)c(C(=O)COC(=O)C2(c3ccc(F)cc3)CCCC2)c(=O)n(C)c1=O,"29.1 µM [rising, single point]",–

# Whole records as entered above. Order of values: AC50 [1]	AC50 (measured here: IkBa-CBG green luminescence)
# COc1ccc(S(=O)(=O)Nc2ccccn2)cc1C as listed: 3.98 µM [rising, full curve, poor fit]	–
# CC1CCN(C(=O)CN(c2ccc3c(c2)OCCO3)S(=O)(=O)c2ccccc2)CC1 as listed: 35.5 µM [falling, single point]	–

# Remaining list, next part

SMILES,AC50 [1],AC50 (measured here: IkBa-CBG green luminescence)
COc1cccc(C(=O)OCC(=O)c2c[nH]c3ccccc23)c1OC,"18.4 µM [falling, single point]",–
O=C(O)c1ccc(Cl)c(S(=O)(=O)NCC2CCCO2)c1 (stereo unspecified),"2.31 µM [rising, single point]",–
O=C(Nc1ccc(N2CCOCC2)cc1N1CCOCC1)c1cccs1,"2.31 µM [falling, partial curve, poor fit]",–
O=C(CSc1ncccc1-c1nc2ccccc2[nH]1)N1CCN(c2ccccc2F)CC1,"1.26 µM [falling, full curve, poor fit]",–
CC1CCCC(C)N1C(=O)CSc1nnnn1-c1cccc2c1CCCC2 (stereo unspecified),"35.5 µM [falling, partial curve, poor fit]",–
COc1ccccc1C(=O)Nc1nnc(-c2ccccc2)s1,"2 µM [falling, partial curve]",–
CCN(CC)C(=O)CCSc1nnc(-c2ccncc2)o1,"0.00461 µM [rising, full curve, poor fit]",–
Cc1ccc(OCC(=O)Nc2ccc(Cl)c(-c3nc4ncccc4o3)c2)c(C)c1,"11.2 µM [falling, partial curve, poor fit]",–
CC(C)NC(=O)CC(=O)N/N=C/c1c(F)cccc1Cl,"12.6 µM [rising, single point]",–
CCOc1ccc(CNC(=O)CCCn2nc(CC)n3c(cc4occc43)c2=O)cc1,"6.31 µM [rising, single point]",–
C[C@]12C=CC(=O)C=C1CC[C@@H]1[C@@H]2[C@@H](O)C[C@@]2(C)[C@H]1CC[C@]2(O)C(=O)COC(=O)CCC(=O)O,"6.51 µM [rising, partial curve]","7.31 µM [falling, partial curve, poor fit]"
Cc1cc2ncn(-c3ncnc4sc5c(c34)CCC(C)C5)c2cc1C (stereo unspecified),"17.8 µM [falling, partial curve, poor fit]",–
COc1ccccc1Nc1nnc(SCC(=O)c2cc(C)n(CC3CCCO3)c2C)s1 (stereo unspecified),"35.5 µM [falling, partial curve, poor fit]",–
Cc1cc(N2C(=O)CC(N3CCN(c4ccc(C(=O)c5cccs5)cc4)CC3)C2=O)no1 (stereo unspecified),"16.4 µM [falling, single point]",–
CC1(C)OC2CC3C4CC(F)C5=CC(=O)C=CC5(C)C4(F)C(O)CC3(C)C2(C(=O)CO)O1 (stereo unspecified),"0.355 µM [rising, full curve, poor fit]",–
CC(C)(C)NC(=S)NNC(=O)[C@H]1C[C@@H]1c1ccccc1,"8.91 µM [rising, partial curve, poor fit]",–
Cc1cc(C2CC(=O)Nc3ccccc3S2)c(C)s1 (stereo unspecified),"3.55 µM [rising, full curve, poor fit]",–
O=C(O)c1cccc(N2C(=O)CSC2=S)c1,"31.6 µM [falling, single point]",–
O=C(CNC(=O)c1ccc2c(c1)OCCO2)N/N=C/c1ccc(Cl)cc1,"25.1 µM [falling, partial curve]",–
COc1cc(S(=O)(=O)N2CCC(O)(c3cccc(C(F)(F)F)c3)CC2)ccc1-n1cnnn1,"8.2 µM [rising, partial curve, poor fit]",–
